The assay has as its target T1, USP (ultraspiracle), endogenous in aff3 cells (Bombyx mori (endogenous in aff3)) (UniProt P49700).
T1 sequence: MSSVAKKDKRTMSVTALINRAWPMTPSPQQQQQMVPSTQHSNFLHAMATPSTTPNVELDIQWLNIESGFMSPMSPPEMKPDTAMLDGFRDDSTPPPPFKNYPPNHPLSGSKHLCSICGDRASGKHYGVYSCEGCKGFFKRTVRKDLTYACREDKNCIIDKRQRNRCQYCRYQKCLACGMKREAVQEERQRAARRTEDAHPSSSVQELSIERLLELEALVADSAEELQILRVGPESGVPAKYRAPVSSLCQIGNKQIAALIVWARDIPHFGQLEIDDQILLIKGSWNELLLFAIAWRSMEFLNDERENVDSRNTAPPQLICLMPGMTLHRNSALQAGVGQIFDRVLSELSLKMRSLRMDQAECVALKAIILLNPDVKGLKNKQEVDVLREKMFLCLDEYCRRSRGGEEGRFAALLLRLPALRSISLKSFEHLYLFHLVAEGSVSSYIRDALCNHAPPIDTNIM
Put plainly: native gel or EMSA; super shift assay: whole-cell extracts of aff3 cells overexpressing V5-tagged EcR-A or EcR-B1 incubated with 32P probes (BmEcRB1-E1, BmE75A-EcRE, BHR3B-EcRE) 20 min on ice, then anti-V5 and anti-USP antibodies together 1.5 h on ice; 4% polyacrylamide gel; both proteins found in one protein-DNA complex (super-shift2).

These are yes or no findings as the source states them, for the method shown. Binding can be weak; no strength is given.

As to “BmEcR-A tagged with a V5 antigen (A^T) (Bombyx mori) (receptor)”, the binding entry is reported as “binds”.

These data come from PMC3498158.
